# PubChem BioAssay AID743121 | NCATS | 2013
# Purpose: 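Knock-downs that sensitise breast cancer cells to camptothecin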 (primary screen)
# Cells: MDA-MB-231 cells, a human breast cancer line
# Knock-down reagent: single siRNA against human genes, 20 nM siRNA (0.8 pmol per well)
# Timing: 120 h (drug added 48 h after transfection, read 72 h later)
# Treatment: camptothecin 20 nM (about EC30) for 72 h; vehicle 0.1% DMSO in parallel plates
# Measurement: 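CellTiter-Glo ATP signal, scaled to control siRNA as percent viability; sensitisation given as log2 of untreated divided by camptothecin-treated viability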
# Scale: log2 vehicle/camptothecin viability: higher = stronger sensitisation to camptothecin; viability with camptothecin: higher = more viable cells
# Call rule: 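Each gene scored by redundant siRNA activity (RSA) over its individual siRNA ratios; a gene is called active at p < 0.001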
# This is an unselected part of about 26,000 reagents. In the full data, 167 (0.63%) got an active call. 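Calls are per gene from RSA p-values that are not deposited; an individual active-marked siRNA can sensitise only weakly.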 Reagents against one gene are numbered here. Further read-outs or replicates are left out here.
target,reagent,log2 vehicle/camptothecin viability,viability with camptothecin (% of control),call
DCUN1D1,1,0.293,84.9,inactive
DCUN1D1,2,0.102,102,inactive
DCUN1D1,3,0.021,102,inactive
DCUN1D1,4,-0.0161,85.9,inactive
DRD4,1,-0.256,102,inactive
DRD4,2,-0.252,62,inactive
DRD4,3,-0.655,81.2,inactive
DRD4,4,-0.196,72.7,inactive
TUBA3C,1,-0.699,45.1,inactive
TUBA3C,2,-0.486,63.1,inactive
TUBA3C,3,-0.707,78.7,inactive
TUBA3C,4,-0.135,66.6,inactive
MIB1,1,-0.304,94,inactive
MIB1,2,0.137,48.5,inactive
MIB1,3,-0.234,129,inactive
MIB1,4,0.0976,37.9,inactive
NKD2,1,0.155,72.9,inactive
NKD2,2,0.171,53.5,inactive
NKD2,3,-0.134,97.3,inactive
NKD2,4,-0.15,54.2,inactive
DGKK,1,-0.394,124,inactive
DGKK,2,-0.193,106,inactive
DGKK,3,-0.114,80.9,inactive
DGKK,4,-0.155,108,inactive
DGKK,5,0.0475,54.3,inactive
DGKK,6,-0.155,81.4,inactive
DGKK,7,-0.0665,65.4,inactive
BCL6,1,0.126,69.2,inactive
BCL6,2,-0.118,75.5,inactive
BCL6,3,0.067,97.6,inactive
BCL6,4,-0.156,97.2,inactive
GNAZ,1,0.165,81.6,inactive
GNAZ,2,-0.0383,62.3,inactive
GNAZ,3,-0.0801,80.7,inactive
GNAZ,4,-0.444,116,inactive
TNFRSF13C,1,0.621,58,inactive
TNFRSF13C,2,-0.0902,90.7,inactive
TNFRSF13C,3,-0.454,60.9,inactive
TNFRSF13C,4,-0.216,66.8,inactive
NR2F1,1,-0.246,77.1,inactive
NR2F1,2,-0.338,54.4,inactive
NR2F1,3,0.0704,14.2,inactive
NR2F1,4,0.19,46,inactive
TNFAIP2,1,-0.195,101,inactive
TNFAIP2,2,-0.106,53.2,inactive
TNFAIP2,3,-0.551,53.9,inactive
TNFAIP2,4,-0.0531,123,inactive
